Assay results taken from the supplement of paper PMC8728848.
The other results are listed elsewhere or left out.

Key:
Assay in all cases: glycan array binding signal (z-score within array); higher = stronger binding
Details in all cases: glycan notation: IUPAC condensed, linker removed
[1] = target: Man(a1-2)Man(a1-3)[Man(a1-2)Man(a1-6)]Man(a1-6)[Man(a1-2)Man(a1-2)Man(a1-3)]Man(b1-4)GlcNAc(b1-4)GlcNAc
Procedure, shortened: (§1)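 Glycan array data were curated from 3228 arrays in the Consortium for Functional Glycomics database and kept only where the protein sequence was available. Glycan names were converted to IUPAC-condensed notation, and columns mapping to the same glycan were averaged. The binding signal is a within-array Z-score, averaged across arrays of the same protein sequence at different concentrations or buffers and across linkers. Negative Z-scores can be read as non-binding.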

[2] = target: Man(a1-2)Man(a1-3)[Man(a1-6)]Man(a1-6)[Man(a1-2)Man(a1-3)]Man(b1-4)GlcNAc(b1-4)GlcNAc
Procedure, shortened: as §1

[3] = target: Man(a1-2)Man(a1-6)[Man(a1-3)]Man(a1-6)[Man(a1-2)Man(a1-2)Man(a1-3)]Man
Procedure, shortened: as §1

[4] = target: Man(a1-2)Man(a1-6)[Man(a1-3)]Man(a1-6)[Man(a1-2)Man(a1-2)Man(a1-3)]Man(b1-4)GlcNAc(b1-4)GlcNAc
Procedure, shortened: as §1

Man(a1-3)[Man(a1-6)]Man = target: Man(a1-3)[Man(a1-6)]Man
Procedure, shortened: as §1

[5] = target: Man(a1-3)[Man(a1-6)]Man(a1-6)[Man(a1-2)Man(a1-3)]Man(b1-4)GlcNAc(b1-4)GlcNAc
Procedure, shortened: as §1

[6] = target: Man(a1-3)[Man(a1-6)]Man(a1-6)[Man(a1-3)]Man
Procedure, shortened: as §1

[7] = target: Man(a1-3)[Man(a1-6)]Man(a1-6)[Man(a1-3)]Man(b1-4)GlcNAc(b1-4)GlcNAc
Procedure, shortened: as §1

[8] = target: Man(a1-3)[Man(a1-6)]Man(b1-4)GlcNAc(b1-4)GlcNAc
Procedure, shortened: as §1

[9] = target: Man(a1-3)[Man(a1-6)]Man(b1-4)GlcNAc(b1-4)[Fuc(a1-6)]GlcNAc
Procedure, shortened: as §1

Man(a1-6)Man = target: Man(a1-6)Man
Procedure, shortened: as §1

Man(b1-4)GlcNAc = target: Man(b1-4)GlcNAc
Procedure, shortened: as §1

MurNAc(b1-4)GlcNAc = target: MurNAc(b1-4)GlcNAc
Procedure, shortened: as §1

Neu5Ac(a2-3)Gal = target: Neu5Ac(a2-3)Gal
Procedure, shortened: as §1

[10] = target: Neu5Ac(a2-3)Gal(b1-3)GalNAc
Procedure, shortened: as §1

[11] = target: Neu5Ac(a2-3)Gal(b1-3)GalNAc(b1-3)Gal(a1-4)Gal(b1-4)Glc
Procedure, shortened: as §1

[12] = target: Neu5Ac(a2-3)Gal(b1-3)GalNAc(b1-4)[Neu5Ac(a2-3)]Gal(b1-4)Glc
Procedure, shortened: as §1

[13] = target: Neu5Ac(a2-3)Gal(b1-3)GalNAc(b1-4)[Neu5Ac(a2-8)Neu5Ac(a2-3)]Gal(b1-4)Glc
Procedure, shortened: as §1

[14] = target: Neu5Ac(a2-3)Gal(b1-3)GalNAc6S
Procedure, shortened: as §1

[15] = target: Neu5Ac(a2-3)Gal(b1-3)GlcNAc
Procedure, shortened: as §1

[16] = target: Neu5Ac(a2-3)Gal(b1-3)GlcNAc(b1-2)Man
Procedure, shortened: as §1

[17] = target: Neu5Ac(a2-3)Gal(b1-3)GlcNAc(b1-2)Man(a1-3)[GlcNAc(b1-4)][Neu5Ac(a2-3)Gal(b1-3)GlcNAc(b1-2)Man(a1-6)]Man(b1-4)GlcNAc(b1-4)GlcNAc
Procedure, shortened: as §1

[18] = target: Neu5Ac(a2-3)Gal(b1-3)GlcNAc(b1-2)Man(a1-3)[Neu5Ac(a2-3)Gal(b1-3)GlcNAc(b1-2)Man(a1-6)]Man(b1-4)GlcNAc(b1-4)GlcNAc
Procedure, shortened: as §1

[19] = target: Neu5Ac(a2-3)Gal(b1-3)GlcNAc(b1-3)Gal(b1-3)GlcNAc
Procedure, shortened: as §1

[20] = target: Neu5Ac(a2-3)Gal(b1-3)GlcNAc(b1-3)Gal(b1-4)GlcNAc
Procedure, shortened: as §1

[21] = target: Neu5Ac(a2-3)Gal(b1-3)GlcNAc(b1-3)GalNAc
Procedure, shortened: as §1

[22] = target: Neu5Ac(a2-3)Gal(b1-3)GlcNAc(b1-4)Gal(b1-4)Glc
Procedure, shortened: as §1

[23] = target: Neu5Ac(a2-3)Gal(b1-3)GlcNAc(b1-6)GalNAc
Procedure, shortened: as §1

[24] = target: Neu5Ac(a2-3)Gal(b1-3)GlcNAc6S
Procedure, shortened: as §1

[25] = target: Neu5Ac(a2-3)Gal(b1-3)[Fuc(a1-4)]GlcNAc
Procedure, shortened: as §1

[26] = target: Neu5Ac(a2-3)Gal(b1-3)[Fuc(a1-4)]GlcNAc(b1-3)Gal(b1-3)[Fuc(a1-4)]GlcNAc
Procedure, shortened: as §1

[27] = target: Neu5Ac(a2-3)Gal(b1-3)[Fuc(a1-4)]GlcNAc(b1-3)Gal(b1-4)[Fuc(a1-3)]GlcNAc
Procedure, shortened: as §1

[28] = target: Neu5Ac(a2-3)Gal(b1-3)[GlcNAc(b1-6)]GalNAc
Procedure, shortened: as §1

[29] = target: Neu5Ac(a2-3)Gal(b1-3)[Neu5Ac(a2-6)]GalNAc
Procedure, shortened: as §1

[30] = target: Neu5Ac(a2-3)Gal(b1-3)[Neu5Ac(a2-6)]GlcNAc(b1-3)[Fuc(a1-3)[Gal(b1-4)]GlcNAc(b1-6)]Gal(b1-4)Glc
Procedure, shortened: as §1

[31] = target: Neu5Ac(a2-3)Gal(b1-3)]Neu5Ac(a2-3)Gal(b1-4)]GlcNAc
Procedure, shortened: as §1

Neu5Ac(a2-3)Gal(b1-4)Glc = target: Neu5Ac(a2-3)Gal(b1-4)Glc
Procedure, shortened: as §1

[32] = target: Neu5Ac(a2-3)Gal(b1-4)GlcNAc
Procedure, shortened: as §1

[33] = target: Neu5Ac(a2-3)Gal(b1-4)GlcNAc(b1-2)Man
Procedure, shortened: as §1

[34] = target: Neu5Ac(a2-3)Gal(b1-4)GlcNAc(b1-2)Man(a1-3)[GlcNAc(b1-4)][Neu5Ac(a2-3)Gal(b1-4)GlcNAc(b1-2)Man(a1-6)]Man(b1-4)GlcNAc(b1-4)GlcNAc
Procedure, shortened: as §1

[35] = target: Neu5Ac(a2-3)Gal(b1-4)GlcNAc(b1-2)Man(a1-3)[Neu5Ac(a2-3)Gal(b1-4)GlcNAc(b1-2)Man(a1-6)]Man(b1-4)GlcNAc(b1-4)GlcNAc
Procedure, shortened: as §1

[36] = target: Neu5Ac(a2-3)Gal(b1-4)GlcNAc(b1-2)Man(a1-3)[Neu5Ac(a2-3)Gal(b1-4)GlcNAc(b1-2)Man(a1-6)]Man(b1-4)GlcNAc(b1-4)[Fuc(a1-6)]GlcNAc
Procedure, shortened: as §1

[37] = target: Neu5Ac(a2-3)Gal(b1-4)GlcNAc(b1-2)Man(a1-3)[Neu5Ac(a2-6)Gal(b1-4)GlcNAc(b1-2)Man(a1-6)]Man(b1-4)GlcNAc(b1-4)GlcNAc
Procedure, shortened: as §1

[38] = target: Neu5Ac(a2-3)Gal(b1-4)GlcNAc(b1-2)[Neu5Ac(a2-3)Gal(b1-4)GlcNAc(b1-4)]Man(a1-3)[GlcNAc(b1-4)][Neu5Ac(a2-3)Gal(b1-4)GlcNAc(b1-2)[Neu5Ac(a2-3)Gal(b1-4)GlcNAc(b1-6)]Man(a1-6)]Man(b1-4)GlcNAc(b1-4)GlcNAc
Procedure, shortened: as §1

[39] = target: Neu5Ac(a2-3)Gal(b1-4)GlcNAc(b1-2)[Neu5Ac(a2-3)Gal(b1-4)GlcNAc(b1-4)]Man(a1-3)[GlcNAc(b1-4)][Neu5Ac(a2-3)Gal(b1-4)GlcNAc(b1-4)Man(a1-6)]Man(b1-4)GlcNAc(b1-4)GlcNAc
Procedure, shortened: as §1

B1: Pbx2CASH domain (Cryptococcus neoformans) (protein)
chain: GIPGPNRLYRLSGPIIFTAADQEIATYGYPTGSERAVLRVEGRNTATAIQGDCRRCARVSVKNLVVDGNRKKLGRMRDFQLATGLVVLGGNEGQSIQNSWIKNPRGFTAIHIREGDKLQCSGARVEKNEIGPVGEEYDPEKDGDDPEMSPLGRPLADGVSIACRDSFIRDNTFRDNTDAAIVVYCSPGTLIHA
glycan array binding signal (z-score) [1]: 0.931
glycan array binding signal (z-score) [2]: -0.457
glycan array binding signal (z-score) [3]: -0.354
glycan array binding signal (z-score) [4]: -0.098
glycan array binding signal (z-score) (Man(a1-3)[Man(a1-6)]Man): -0.351
glycan array binding signal (z-score) [5]: -0.454
glycan array binding signal (z-score) [6]: -0.1
glycan array binding signal (z-score) [7]: 0.392
glycan array binding signal (z-score) [8]: 0.243
glycan array binding signal (z-score) [9]: -0.459
glycan array binding signal (z-score) (Man(a1-6)Man): -0.514
glycan array binding signal (z-score) (Man(b1-4)GlcNAc): -0.401
glycan array binding signal (z-score) (MurNAc(b1-4)GlcNAc): -0.63
glycan array binding signal (z-score) (Neu5Ac(a2-3)Gal): -0.926
glycan array binding signal (z-score) [10]: 0.801
glycan array binding signal (z-score) [11]: -0.528
glycan array binding signal (z-score) [12]: -0.487
glycan array binding signal (z-score) [13]: -0.308
glycan array binding signal (z-score) [14]: -0.777
glycan array binding signal (z-score) [15]: -0.147
glycan array binding signal (z-score) [16]: 3.35
glycan array binding signal (z-score) [17]: 0.248
glycan array binding signal (z-score) [18]: 0.27
glycan array binding signal (z-score) [19]: -0.391
glycan array binding signal (z-score) [20]: 0.239
glycan array binding signal (z-score) [21]: 0.011
glycan array binding signal (z-score) [22]: -0.379
glycan array binding signal (z-score) [23]: -0.644
glycan array binding signal (z-score) [24]: -0.247
glycan array binding signal (z-score) [25]: -0.813
glycan array binding signal (z-score) [26]: -0.211
glycan array binding signal (z-score) [27]: -0.049
glycan array binding signal (z-score) [28]: -0.249
glycan array binding signal (z-score) [29]: 0.256
glycan array binding signal (z-score) [30]: -0.803
glycan array binding signal (z-score) [31]: -0.117
glycan array binding signal (z-score) (Neu5Ac(a2-3)Gal(b1-4)Glc): -0.228
glycan array binding signal (z-score) [32]: -0.512
glycan array binding signal (z-score) [33]: 0.907
glycan array binding signal (z-score) [34]: 0.795
glycan array binding signal (z-score) [35]: -0.344
glycan array binding signal (z-score) [36]: -0.448
glycan array binding signal (z-score) [37]: 0.094
glycan array binding signal (z-score) [38]: 0.012
glycan array binding signal (z-score) [39]: -0.173
